Experimental findings from ChEMBL document CHEMBL1671789, “Evaluation of quinazoline analogues as glucocerebrosidase inhibitors with chaperone activity” (J Med Chem, 2011) are described below.

For experiment [1], the target named is T1, Lysosomal acid glucosylceramidase (Homo sapiens) (UniProt P04062).
T1 sequence (whole entry): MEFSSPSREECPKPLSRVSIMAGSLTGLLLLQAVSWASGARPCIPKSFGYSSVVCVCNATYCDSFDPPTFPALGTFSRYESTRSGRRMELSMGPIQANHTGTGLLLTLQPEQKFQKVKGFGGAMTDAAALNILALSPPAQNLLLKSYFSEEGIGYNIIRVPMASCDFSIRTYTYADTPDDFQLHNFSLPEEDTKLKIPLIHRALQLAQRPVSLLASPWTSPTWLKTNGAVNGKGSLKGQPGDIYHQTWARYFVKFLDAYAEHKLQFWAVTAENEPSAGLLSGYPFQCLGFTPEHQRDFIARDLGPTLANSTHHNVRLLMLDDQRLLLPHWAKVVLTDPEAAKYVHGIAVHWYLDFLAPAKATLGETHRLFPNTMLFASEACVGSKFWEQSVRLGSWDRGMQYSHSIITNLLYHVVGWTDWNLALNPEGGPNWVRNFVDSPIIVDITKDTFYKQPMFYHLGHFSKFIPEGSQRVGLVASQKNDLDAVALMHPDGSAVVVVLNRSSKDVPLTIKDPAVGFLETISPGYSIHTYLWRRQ

Experiment [2] deals with T1, Lysosomal acid glucosylceramidase (Homo sapiens). This is another data set of the same source.
For experiment [3] the target is unchanged. This is another data set of the same source.
Experiment [4] has the same target. This is another data set of the same source.
Experiment [5] shares this target. The source holds these as a separate data set.
The target is the same in experiment [6]. This is another data set of the same source.
For experiment [7] the target is unchanged. This is another data set of the same source.

In the case of `Cc1ccc(S(=O)(=O)N2CCN(c3ncnc4ccccc34)CC2)cc1`, the ΔTm (commonly the shift of the melting midpoint relative to a reference) is -0.3 °C in experiment [1]; 0.42 °C in experiment [2]; 0.43 °C in experiment [3]; 0.29 °C in experiment [4]; 0.88 °C in experiment [5]; -0.26 °C in experiment [6]. In addition, the ΔTm in experiment [7] was 0.5 °C.
